According to patent US20220041582A1, “ISOXAZOLINE COMPOUNDS FOR CONTROLLING INVERTEBRATE PESTS” (FMC Corporation, priority 2018, published 2022):
Some entries share one result that the patent states for a list of compounds.

Tests used:
Assay type in all cases: in vivo
[1] = test system: sweetpotato whitefly (Bemisia tabaci (Gennadius)); test: Test G: control of sweetpotato whitefly through contact and/or systemic means; conditions: 13 days
Description: (§1) Formulation and Spray Methodology for Tests A-H
(§2) Test compounds were formulated using a solution containing 10% acetone, 90% water and 300 ppm Activator 90® non-ionic surfactant (Loveland Products, Loveland, Colo., USA). The formulated compounds were applied in 1 mL of liquid through an atomizer nozzle positioned 1.27 cm (0.5 inches) above the top of each test unit. Test compounds were sprayed at the rates indicated, and each test was replicated three times.
For evaluating control of the sweetpotato whitefly (Bemisia tabaci (Gennadius)) through contact and/or systemic means, the test unit consisted of a small open container with a 12-14-day-old cotton plant inside. Prior to the spray application, both cotyledons were removed from the plant, leaving one true leaf for the assay. Adult whiteflies were allowed to lay eggs on the plant and then were removed from the test unit. Cotton plants infested with at least 15 eggs were submitted to the test for spraying.
Test compounds were formulated and sprayed at 250, 50 and 10 ppm. After spraying, the test units were allowed to dry for 1 hour. The cylinders were then removed, and the units were taken to a growth chamber and held for 13 days at 28° C. and 50-70% relative humidity. Each test unit was then visually assessed for insect mortality.

[2] = test system: potato leafhopper (Empoasca fabae (Harris)); test: Test D: control of potato leafhopper through contact and/or systemic means; conditions: 50 ppm spray; 6 days
Description: as §1, §2
[…] White sand was added to the top of the soil, and one of the primary leaves was excised prior to application of the test compound.
Test compounds were formulated and sprayed at 250, 50 and 10 ppm. After spraying of the formulated test compound, the test units were allowed to dry for 1 hour before they were post-infested with 5 potato leafhoppers (18-to-21-day-old adults). A black, screened cap was placed on the top of the test unit, and the test units were held for 6 days in a growth chamber at 20° C. and 70% relative humidity. Each test unit was then visually assessed for insect mortality.

[3] = test system: diamondback moth (Plutella xylostella (L.)); test: Test A: control of diamondback moth on mustard plant, foliar spray; conditions: 6 days, 40% or less feeding damage and/or 100% mortality
[4] = test system: green peach aphid (Myzus persicae (Sulzer)); test: Test E: control of green peach aphid through contact and/or systemic means; conditions: 6 days
[5] = test system: cotton melon aphid (Aphis gossypii (Glover)); test: Test F: control of cotton melon aphid through contact and/or systemic means; conditions: 6 days
[6] = test system: Western Flower Thrips (Frankliniellla occidentalis (Pergande)); test: Test H: control of Western Flower Thrips through contact and/or systemic means; conditions: 6 days, 30% or less plant damage and/or 100% mortality
[7] = test system: corn planthopper (Peregrinus maidis (Ashmead)); test: Test C: control of corn planthopper through contact and/or systemic means; conditions: 50 ppm spray; 6 days
Description: as §1, §2
For evaluating control of corn planthopper (Peregrinus maidis (Ashmead)) through contact and/or systemic means, the test unit consisted of a small open container with a 3-4-day-old corn (maize) plant inside. White sand was added to the top of the soil prior to application of the test compound.
Test compounds were formulated and sprayed at 50 and 10 ppm. After spraying of the formulated test compound, the test units were allowed to dry for 1 h before they were post-infested with ˜15-20 nymphs (18-to-21-day-old). A black, screened cap was placed on the top of each test unit, and the test units were held for 6 days in a growth chamber at 22-24° C. and 50-70% relative humidity. Each test unit was then visually assessed for insect mortality.

[8] = test system: fall armyworm (Spodoptera frugiperda (J. E. Smith)); test: Test B: control of fall armyworm on corn plant, foliar spray; conditions: 6 days, 40% or less feeding damage and/or 100% mortality

| SMILES | mortality ([1]; 10 ppm spray) | mortality ([1]; 50 ppm spray) | mortality [2] | control efficacy: feeding damage (and/or 100% mortality) ([3]; 0.4 ppm spray) [%] | control efficacy: feeding damage (and/or 100% mortality) ([3]; 2 ppm spray) [%] | control efficacy: feeding damage (and/or 100% mortality) ([3]; 10 ppm spray) [%] | mortality ([4]; 50 ppm spray) | mortality ([5]; 10 ppm spray) | mortality ([5]; 50 ppm spray) | control efficacy: plant damage (and/or 100% mortality) ([6]; 0.4 ppm spray) [%] | control efficacy: plant damage (and/or 100% mortality) ([6]; 2 ppm spray) [%] | control efficacy: plant damage (and/or 100% mortality) ([6]; 10 ppm spray) [%] | mortality [7] | control efficacy: feeding damage (and/or 100% mortality) ([8]; 0.4 ppm spray) [%] | control efficacy: feeding damage (and/or 100% mortality) ([8]; 2 ppm spray) [%] | control efficacy: feeding damage (and/or 100% mortality) ([8]; 10 ppm spray) [%] | mortality ([4]; 10 ppm spray) |
| --- | --- | --- | --- | --- | --- | --- | --- | --- | --- | --- | --- | --- | --- | --- | --- | --- | --- |
| O=C(NCc1ncccn1)c1ccc(C2=NOC(c3cc(Cl)cc(C(F)(F)F)c3)(C(F)(F)F)C2)c2ccncc12 (stereo not shown) [Compound 37] | at least 50% | at least 50% | at least 80% | ≤ 40 | ≤ 40 | ≤ 40 | at least 80% | at least 80% | at least 80% | ≤ 30 | ≤ 30 | ≤ 30 | at least 80% | ≤ 40 | ≤ 40 | ≤ 40 | – |
| CCCNC(=O)c1ccc(C2=NOC(c3ccc(F)c(C(F)(F)F)c3)(C(F)(F)F)C2)c2ccncc12 (stereo not shown) [Compound 66] | – | at least 50% | at least 80% | ≤ 40 | ≤ 40 | – | at least 80% | at least 80% | at least 80% | – | ≤ 30 | – | at least 80% | ≤ 40 | ≤ 40 | – | at least 80% |
| O=C(NC1CC1)c1ccc(C2=NOC(c3cc(Cl)c(F)c(C(F)(F)F)c3)(C(F)(F)F)C2)c2ccncc12 (stereo not shown) [Compound 80] | at least 50% | at least 50% | at least 80% | ≤ 40 | ≤ 40 | – | at least 80% | at least 80% | at least 80% | ≤ 30 | ≤ 30 | – | at least 80% | – | ≤ 40 | – | – |
